Among the data in publication PMC7032569 are binding values, retold here.

These are yes or no findings as the source states them, for the method shown. Binding seen in cells or lysates may run through a third protein. Some entries that bind do so weakly or less than the wild type.

Assay [1] addresses Polyamination-defective 4EBP1-GST (Q28,95,113A) (human) (UniProt Q13541). The experiment in a line: pull-down; lysates of A549 cells incubated with purified wild-type or mutant 4EBP1-GST, pull-down (legend: streptavidin), blots with anti-TG2 and anti-eIF4E; only the target purified.
Assay [2] deals with Recombinant 4EBP1-GST fusion protein, wild type (human) (UniProt Q13541). Described as above.

B1: Transglutaminase 2 (TG2), endogenous in A549 cells (enzyme, UniProt P21980 1-687)
chain: MAEELVLERCDLELETNGRDHHTADLCREKLVVRRGQPFWLTLHFEGRNYEASVDSLTFSVVTGPAPSQEAGTKARFPLRDAVEEGDWTATVVDQQDCTLSLQLTTPANAPIGLYRLSLEASTGYQGSSFVLGHFILLFNAWCPADAVYLDSEEERQEYVLTQQGFIYQGSAKFIKNIPWNFGQFEDGILDICLILLDVNPKFLKNAGRDCSRRSSPVYVGRVVSGMVNCNDDQGVLLGRWDNNYGDGVSPMSWIGSVDILRRWKNHGCQRVKYGQCWVFAAVACTVLRCLGIPTRVVTNYNSAHDQNSNLLIEYFRNEFGEIQGDKSEMIWNFHCWVESWMTRPDLQPGYEGWQALDPTPQEKSEGTYCCGPVPVRAIKEGDLSTKYDAPFVFAEVNADVVDWIQQDDGSVHKSINRSLIVGLKISTKSVGRDEREDITHTYKYPEGSSEEREAFTRANHLNKLAEKEETGMAMRIRVGQSMNMGSDFDVFAHITNNTAEEYVCRLLLCARTVSYNGILGPECGTKYLLNLNLEPFSEKSVPLCILYEKYRDCLTESNLIKVRALLVEPVINSYLLAERDLYLENPEIKIRILGEPKQKRKLVAEVSLQNPLPVALEGCTFTVEGAGLTEEQKTVEIPDPVEAGEEVKVRMDLLPLHMGLHKLVVNFESDKLKAVKGFRNVIIGPA
Turning to B1, the binding entry in assay [1] and in assay [2] was “binds” throughout.
